Laboratory results as given in article PMC1933423.
No constants are given. Whether binding was seen depends on the method and setting. Some entries that bind do so weakly or less than the wild type. Tags and fused reporters may be left off the sequences shown.

Experiments:
[1] = target: chick Hairy1 protein, whole (two-hybrid fusion) (chick (Gallus gallus)) (UniProt O57337); test: two-hybrid; confirmation by mating: baits (Gal4 DNA-BD, pGBKT7) in Y187, preys (Gal4 AD, pGADT7) in AH109; growth of 20-fold serial dilutions on SD-Leu/-Trp/-His/-Ade/X-alpha-gal medium
[2] = target: chick Hairy1 protein, whole (two-hybrid fusion) (chick (Gallus gallus)) (UniProt O57337); test: two-hybrid; quantification of reporter beta-galactosidase activity in liquid culture, normalised to the Hairy1/Hairy1 interaction

binding [1]: binds | binding [2]: binds
B1: chick Hairy1 protein, whole (two-hybrid fusion) (protein, UniProt O57337 1-290)
chain: MPADTGMEKPTASPIAGAPASASHTPDKPRSASEHRKSSKPIMEKRRRARINESLGQLKMLILDALKKDSSRHSKLEKADILEMTVKHLRNLQRAQMAAALSADPSVLGKYRAGFNECMNEVTRFLSTCEGVNADVRARLLGHLSACLGQIVAMNYLPPPPAGQPAHLAQPLHVQLPPTTTGAVPVPCKLEPTEALSPKVYGGFQLVPATDGQFAFLIPNPAFPPGSGPVIPLYANANVPVSTAWRSSERVHPPAGIPGAGLDIIWARVVPASQAGSPIAERREAVWRPW
